# Experimental data taken from paper PMC8384837.
# Residue numbers refer to the chain shown, from its start. Some of the results follow. For some of these results: At the low end of the ranking, values are background and their order means little.
# Assays:
# Conditions in all cases: yeast three-hybrid, YBZ-1, SC-Leu-His + 0.5 mM 3-AT, 4 days
# [1] = target: T1, PUM1 PUF domain R1-QFR R2-VFQ R7-NPG S863Q + R864F + Q867R + N899V + Y900F + S1079N + N1080P + E1083G (UniProt Q14671)
# T1 sequence: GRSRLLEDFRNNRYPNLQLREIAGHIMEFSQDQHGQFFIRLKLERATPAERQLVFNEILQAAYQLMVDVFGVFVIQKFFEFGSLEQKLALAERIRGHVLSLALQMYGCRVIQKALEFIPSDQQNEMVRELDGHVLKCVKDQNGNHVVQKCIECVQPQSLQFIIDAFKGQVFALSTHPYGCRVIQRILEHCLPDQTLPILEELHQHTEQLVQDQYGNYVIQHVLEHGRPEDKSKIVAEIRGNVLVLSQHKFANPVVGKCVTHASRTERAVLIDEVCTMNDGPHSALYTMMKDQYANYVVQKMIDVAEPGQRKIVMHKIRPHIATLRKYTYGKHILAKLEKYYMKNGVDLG
# [2] = target: T2, PUM1 PUF domain R3-THE R4-TFR C935T + R936H + Q939E + N971T + H972F + Q975R (UniProt Q14671)
# T2 sequence: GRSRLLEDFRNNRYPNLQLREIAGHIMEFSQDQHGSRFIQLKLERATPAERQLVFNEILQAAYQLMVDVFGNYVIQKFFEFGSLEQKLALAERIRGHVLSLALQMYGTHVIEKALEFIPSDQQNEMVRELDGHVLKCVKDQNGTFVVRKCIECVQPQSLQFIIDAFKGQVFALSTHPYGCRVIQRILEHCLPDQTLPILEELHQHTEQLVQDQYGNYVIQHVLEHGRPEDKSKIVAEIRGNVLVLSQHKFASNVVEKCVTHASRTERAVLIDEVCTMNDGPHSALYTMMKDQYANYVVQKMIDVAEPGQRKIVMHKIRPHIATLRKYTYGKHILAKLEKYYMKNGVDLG
# [3] = target: T3, PUM1 PUF domain R5-AFF C1007A + R1008F + Q1011F (Homo sapiens) (UniProt Q14671)
# T3 sequence: T2 sequence with T108C, H109R, E112Q, T144N, F145H, R148Q, C180A, R181F, Q184F
# [4] = target: T4, PUM1 PUF domain R5-CGR R1008G + Q1011R (Homo sapiens) (UniProt Q14671)
# T4 sequence: T2 sequence with T108C, H109R, E112Q, T144N, F145H, R148Q, R181G, Q184R
# [5] = target: T5, PUM1 PUF domain R5-CRR Q1011R (Homo sapiens) (UniProt Q14671)
# T5 sequence: T2 sequence with T108C, H109R, E112Q, T144N, F145H, R148Q, Q184R
# [6] = target: T6, PUM1 PUF domain R5-CSR R1008S + Q1011R (Homo sapiens) (UniProt Q14671)
# T6 sequence: T2 sequence with T108C, H109R, E112Q, T144N, F145H, R148Q, R181S, Q184R
# [7] = target: T7, PUM1 PUF domain R5-CTR R1008T + Q1011R (UniProt Q14671)
# T7 sequence: T2 sequence with T108C, H109R, E112Q, T144N, F145H, R148Q, R181T, Q184R
# [8] = target: T8, PUM1 PUF domain R5-DCR C1007D + R1008C + Q1011R (UniProt Q14671)
# T8 sequence: T2 sequence with T108C, H109R, E112Q, T144N, F145H, R148Q, C180D, R181C, Q184R
# [9] = target: T9, PUM1 PUF domain R5-DLR C1007D + R1008L + Q1011R (UniProt Q14671)
# T9 sequence: T2 sequence with T108C, H109R, E112Q, T144N, F145H, R148Q, C180D, R181L, Q184R
# [10] = target: T10, PUM1 PUF domain R5-DYG C1007D + R1008Y + Q1011G (UniProt Q14671)
# T10 sequence: T2 sequence with T108C, H109R, E112Q, T144N, F145H, R148Q, C180D, R181Y, Q184G
# [11] = target: T11, PUM1 PUF domain R5-ERC C1007E + Q1011C (Homo sapiens) (UniProt Q14671)
# T11 sequence: T2 sequence with T108C, H109R, E112Q, T144N, F145H, R148Q, C180E, Q184C
# [12] = target: T12, PUM1 PUF domain R5-ERG C1007E + Q1011G (Homo sapiens) (UniProt Q14671)
# T12 sequence: T2 sequence with T108C, H109R, E112Q, T144N, F145H, R148Q, C180E, Q184G
# [13] = target: T13, PUM1 PUF domain R5-ERK C1007E + Q1011K (Homo sapiens) (UniProt Q14671)
# T13 sequence: T2 sequence with T108C, H109R, E112Q, T144N, F145H, R148Q, C180E, Q184K
# [14] = target: T14, PUM1 PUF domain R5-EVC C1007E + R1008V + Q1011C (Homo sapiens) (UniProt Q14671)
# T14 sequence: T2 sequence with T108C, H109R, E112Q, T144N, F145H, R148Q, C180E, R181V, Q184C
# [15] = target: T15, PUM1 PUF domain R5-FRC C1007F + Q1011C (UniProt Q14671)
# T15 sequence: T2 sequence with T108C, H109R, E112Q, T144N, F145H, R148Q, C180F, Q184C
# [16] = target: T16, PUM1 PUF domain R5-FRD C1007F + Q1011D (UniProt Q14671)
# T16 sequence: T2 sequence with T108C, H109R, E112Q, T144N, F145H, R148Q, C180F, Q184D
# [17] = target: T17, PUM1 PUF domain R5-GGE C1007G + R1008G + Q1011E (Homo sapiens) (UniProt Q14671)
# T17 sequence: T2 sequence with T108C, H109R, E112Q, T144N, F145H, R148Q, C180G, R181G, Q184E
# [18] = target: T18, PUM1 PUF domain R5-GHG C1007G + R1008H + Q1011G (UniProt Q14671)
# T18 sequence: T2 sequence with T108C, H109R, E112Q, T144N, F145H, R148Q, C180G, R181H, Q184G
# [19] = target: T19, PUM1 PUF domain R5-GKC C1007G + R1008K + Q1011C (UniProt Q14671)
# T19 sequence: T2 sequence with T108C, H109R, E112Q, T144N, F145H, R148Q, C180G, R181K, Q184C
# [20] = target: T20, PUM1 PUF domain R5-GLR C1007G + R1008L + Q1011R (UniProt Q14671)
# T20 sequence: T2 sequence with T108C, H109R, E112Q, T144N, F145H, R148Q, C180G, R181L, Q184R
# [21] = target: T21, PUM1 PUF domain R5-GSE C1007G + R1008S + Q1011E (Homo sapiens) (UniProt Q14671)
# T21 sequence: T2 sequence with T108C, H109R, E112Q, T144N, F145H, R148Q, C180G, R181S, Q184E
# [22] = target: T22, PUM1 PUF domain R5-GTE C1007G + R1008T + Q1011E (UniProt Q14671)
# T22 sequence: T2 sequence with T108C, H109R, E112Q, T144N, F145H, R148Q, C180G, R181T, Q184E
sequence,measurement,setting,value
GGCUAGAACUAGUGGAUCCCCCGGCGCCCGGCGGCUCGAGCCCGGGUAAGUGUUAAUAGUCUGCAUGCCGCCGGGCGCCAUGCCUGCAGGUCGACUCUAGAAAACAUG,binding signal (log2 enrichment (interaction score)),[1],-4.8
same,binding signal (log2 enrichment (interaction score)),[2],-5.93
same,binding signal (log2 enrichment (interaction score)),[3],-2.24
same,binding signal (log2 enrichment (interaction score)),[4],-1.95
same,binding signal (log2 enrichment (interaction score)),[5],-0.76
same,binding signal (log2 enrichment (interaction score)),[6],0.23
same,binding signal (log2 enrichment (interaction score)),[7],-4.98
same,binding signal (log2 enrichment (interaction score)),[8],-2.65
same,binding signal (log2 enrichment (interaction score)),[9],-2.31
same,binding signal (log2 enrichment (interaction score)),[10],-4.76
same,binding signal (log2 enrichment (interaction score)),[11],0.48
same,binding signal (log2 enrichment (interaction score)),[12],-0.55
same,binding signal (log2 enrichment (interaction score)),[13],-0.35
same,binding signal (log2 enrichment (interaction score)),[14],-1.94
same,binding signal (log2 enrichment (interaction score)),[15],-4.25
same,binding signal (log2 enrichment (interaction score)),[16],-4.38
same,binding signal (log2 enrichment (interaction score)),[17],-1.63
same,binding signal (log2 enrichment (interaction score)),[18],-3.18
same,binding signal (log2 enrichment (interaction score)),[19],-9.44
same,binding signal (log2 enrichment (interaction score)),[20],-4.1
same,binding signal (log2 enrichment (interaction score)),[21],-1.89
same,binding signal (log2 enrichment (interaction score)),[22],-5.6

# Some of the entries above in a different format:
sequence	measurement	setting	value
GGCUAGAACUAGUGGAUCCCCCGGCGCCCGGCGGCUCGAGCCCGGGUAAGUGUUAAUAGUCUGCAUGCCGCCGGGCGCCAUGCCUGCAGGUCGACUCUAGAAAACAUG	binding signal (log2 enrichment (interaction score))	[16]	-4.38
same	binding signal (log2 enrichment (interaction score))	[17]	-1.63
